Laboratory results as given in article PMC7819943, “Rice protein-binding microarrays: a tool to detect cis-acting elements near promoter regions in rice”.
This is one part of the list.

Amino acid sequences for entries named in this document (tags omitted).
UniProt Q0JBA9, entry or part of it: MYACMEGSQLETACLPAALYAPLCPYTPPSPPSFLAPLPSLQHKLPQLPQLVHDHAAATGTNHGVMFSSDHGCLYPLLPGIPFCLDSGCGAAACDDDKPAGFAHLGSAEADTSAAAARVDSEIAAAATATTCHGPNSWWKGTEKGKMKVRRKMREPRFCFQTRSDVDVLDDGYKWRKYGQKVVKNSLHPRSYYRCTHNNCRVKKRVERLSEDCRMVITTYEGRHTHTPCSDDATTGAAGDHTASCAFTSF

Molecular target: OsWRKY34 (Oryza sativa, UniProt Q0JBA9 1-250)
Assay: protein-binding microarray (RPBM); PBS, 2% BSA, 51.3 ng/ul salmon testes DNA, 50 uM zinc acetate, 200 nM TF, 25 C, 1 h; high values mean tight binding
Settings: protein: recombinant; tags: N-terminal polyhistidine and DsRed monomer fusion (pET32a); label: CyDye5-dUTP incorporated in the synthesized complementary strand; 3' TTTTT single-stranded linker to array surface; dsDNA, one strand shown
Procedure, shortened: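 The binding signal is fluorescence intensity per feature, in arbitrary units, read on an Axon 4000B scanner. Polyhistidine- and DsRed-tagged transcription factors (N-terminal fusions) from E. coli BL21-CodonPlus were purified on Ni–NTA and applied at 200 nM for 1 h at 25 °C to a double-stranded, BSA-blocked custom Agilent array in buffer with 50 µM zinc acetate.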

Row | Sequence | binding signal
1 | TTACAGAAACATTACCTACAATGTCAATGACTATTTGTATCGGAGTCACCTAGTGCAG | 8480 fluorescence intensity (a.u.)
2 | GACCTGTCTACCGCCGCCCTAGTGACTAATGTTGACCACACGGAGTCACCTAGTGCAG | 12000 fluorescence intensity (a.u.)
3 | TTTAATGTTCAGTCCTATGTACAGTACCATCCATTGTTTTCGGAGTCACCTAGTGCAG | 8430 fluorescence intensity (a.u.)
4 | CTTCTAATACGCCCCTTAGTTTTGGGATTTCTTACGAGACCGGAGTCACCTAGTGCAG | 8420 fluorescence intensity (a.u.)
5 | CTGGAATTTCACATGATCCTAGTCGTACTTTCTACCAGCACGGAGTCACCTAGTGCAG | 8640 fluorescence intensity (a.u.)
6 | TTGATGGTTTTAATATATGTTATTATTTTTATCCTATCTTCGGAGTCACCTAGTGCAG | 8520 fluorescence intensity (a.u.)
7 | AATTTAACTTTCTCGTTTACCGTTATCACGCTTCTCAAACCGGAGTCACCTAGTGCAG | 9550 fluorescence intensity (a.u.)
8 | CTCCTGTTTCCGTTAGTCTTCGTGGGTGGGCCTACAAGCACGGAGTCACCTAGTGCAG | 8260 fluorescence intensity (a.u.)
9 | CGTTTCGCGTTGGTTCCTCTGTCTTATTCAACGTGAGTATCGGAGTCACCTAGTGCAG | 11600 fluorescence intensity (a.u.)
10 | TATTAGATGTGTCTTGTTTAGTCCATATTTTCAGGTTGTTCGGAGTCACCTAGTGCAG | 10000 fluorescence intensity (a.u.)
11 | ATAGCTAATATCTGTTTTGTCTAGAGTTGACCATGCAAGACGGAGTCACCTAGTGCAG | 8520 fluorescence intensity (a.u.)
12 | TTTGATATTTTTTAACAAATATTTGACCATCCGTCTTATTCGGAGTCACCTAGTGCAG | 8560 fluorescence intensity (a.u.)
13 | GTGTGCTGTACTGCTGTTCCTTCGAGCCATTGACCGGTTGCGGAGTCACCTAGTGCAG | 8940 fluorescence intensity (a.u.)
14 | ACGGCCAGGCAAGCAAGCAAACGCCGCGGCTACCAATACCCGGAGTCACCTAGTGCAG | 39600 fluorescence intensity (a.u.)
15 | CCTTTTTTTTTCTATTTCTATATTTTTAAAATCTTACGTACGGAGTCACCTAGTGCAG | 10900 fluorescence intensity (a.u.)
16 | ACCTCTTCCTAACTAACCAGTCTGGCGAAAATCATTTTTTCGGAGTCACCTAGTGCAG | 9960 fluorescence intensity (a.u.)
17 | AATTAGTTTCTTGCTTCTTCTTTTTTCTTTTCTTTTTCATCGGAGTCACCTAGTGCAG | 8210 fluorescence intensity (a.u.)
18 | TTGTCAAACTATGGTACGTCGTTCATATCCGATTCCCGTTCGGAGTCACCTAGTGCAG | 9380 fluorescence intensity (a.u.)
19 | CCTTGTCTATGTTTCCACTGGTCGTGCTGGTCTCGGAGTACGGAGTCACCTAGTGCAG | 8680 fluorescence intensity (a.u.)
20 | TGGGGAGGCCATTGCAATCTTCAGTCTCCAGGTCTTCTTCCGGAGTCACCTAGTGCAG | 8790 fluorescence intensity (a.u.)
21 | GGAGGCGGAGGCGGGGCCCGTGGCGGAGGCGGAGGCGGCGCGGAGTCACCTAGTGCAG | 8170 fluorescence intensity (a.u.)
22 | TGCAATGTTGTTTATTCATTTTGGTTTTCTTTTTTCTAATCGGAGTCACCTAGTGCAG | 8610 fluorescence intensity (a.u.)
23 | TTGTAAAGCTGCTGTTCTGTTCTTGTCCCTGGTGTGTGGGCGGAGTCACCTAGTGCAG | 8270 fluorescence intensity (a.u.)

Look-ups from above:
Value of TTGTCAAACTATGGTACGTCGTTCATATCCGATTCCCGTTCGGAGTCACCTAGTGCAG under binding signal: 9380 fluorescence intensity (a.u.)
Value of CGTTTCGCGTTGGTTCCTCTGTCTTATTCAACGTGAGTATCGGAGTCACCTAGTGCAG under binding signal: 11600 fluorescence intensity (a.u.)
